In article PMC12421854:
Construct, isoform or probe ends are uncertain for at least one entry. For some assays here: Negatives hold for the conditions tested. For some assays here: Protein sequences can lack the tags named with them. For some assays here: At least one verdict rests on a figure or table, not on a statement of the authors. For some assays here: The direction of at least one scale is not stated here.

Key:
[1] = test system: ForF (Streptomyces formicae); test: SPR; settings: probe chosen as parent of truncation series, ReDCaT SPR on Biacore 8K+, SA chip, HBS-EP+ buffer (1 mM DTT added for ForJ), protein usually 1000, 100 and 10 nM, temperature not stated, recombinant protein
[2] = target: T1, ForZ (Streptomyces formicae) (UniProt A0A291QJL1); test: SPR; settings: ReDCaT SPR on Biacore 8K+, SA chip, HBS-EP+ buffer (1 mM DTT added for ForJ), protein usually 1000, 100 and 10 nM, temperature not stated, recombinant protein
T1 sequence (looked up, limits assumed): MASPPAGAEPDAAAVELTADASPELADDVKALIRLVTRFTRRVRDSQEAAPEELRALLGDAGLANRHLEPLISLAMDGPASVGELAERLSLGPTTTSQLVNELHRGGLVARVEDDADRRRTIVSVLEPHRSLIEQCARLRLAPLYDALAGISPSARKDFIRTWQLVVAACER

Sequence: TGGCACACGGGGGAGGGGACATCCCTCCTTCGGCAGAGCC / GGCTCTGCCGAAGGAGGGATGTCCCCTCCCCCGTGTGCCACCTACCCTACGTCCTCCTGC [pforHI/GF probe 10 (=22)]
- binding result [1]: binds

Sequence: AACGGACCAGACGAGCTACCCCGAACGGCGTAGCGAAGGG / CCCTTCGCTACGCCGTTCGGGGTAGCTCGTCTGGTCCGTTCCTACCCTACGTCCTCCTGC [pKY5_0375 probe 7 (=17)]
- binding result ([1]; one of two KY5_0375 sites): binds

Sequence: ATTAGCTCGAAGTTCGATGCATCTTGCAGT (double strand) [forZ-forAA inverted repeat probe (Fig. 4; AA_11 in Fig. S3)]
- binding signal (% of normal Rmax) ([2]; 10 uM fasamycin E (text prints 10 mM), at highest ForZ concentrations): 50
- binding result ([2]; 10 uM formicamycin I (text prints 10 mM), binding abolished, formicamycin I inhibits 500 nM ForZ with IC50 2.48 uM): no binding
- Kd [2]: 0.046 µM
